This is one part of the list.
How the values were obtained:
Assay in all cases: log2 fold change, soluble protein after heating vs DMSO (PISA); higher = thermal stabilisation; K562 lysate, 10 uM; active = over 0.2 and 3.5 SD of the protein, either way, in both replicates (recomputed)
[1] = compound: C1=CC=C(C=C1)[C@H](COC2=CC3=C(C=C2)NC(=O)N3)NC(=O)C4=CC=CN(C4=O)CC5=CC(=C(C=C5)F)F
In short: (§1)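 To prepare the extract, K562 pellets were dounce-homogenised in PBS pH 7.4 with 1 mM MgCl2, giving crude material at 1 mg/mL protein. This was treated with 10 μM compound for 30 min, then heated in aliquots for 3 min over 48°C-58°C before pooling and addition of NP-40 to 0.5% at 4°C. Centrifugation at 21,000xg for 90 min left soluble protein in the supernatant, which TMTpro 16plex LC-MS/MS quantified with equalised channel sums. Results are log-two fold changes in thermal stability compared with solvent controls, from duplicates.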

By UniProt entry, the sequences of proteins in these tests, tags left out. Where a name states a change or a piece, a line headed by the entry shows the natural chain unless it says otherwise.
UniProt Q7RTV0, whole entry, looked up: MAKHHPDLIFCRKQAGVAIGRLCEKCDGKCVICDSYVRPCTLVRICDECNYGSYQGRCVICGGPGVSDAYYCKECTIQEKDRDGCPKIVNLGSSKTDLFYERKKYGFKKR
UniProt P35232: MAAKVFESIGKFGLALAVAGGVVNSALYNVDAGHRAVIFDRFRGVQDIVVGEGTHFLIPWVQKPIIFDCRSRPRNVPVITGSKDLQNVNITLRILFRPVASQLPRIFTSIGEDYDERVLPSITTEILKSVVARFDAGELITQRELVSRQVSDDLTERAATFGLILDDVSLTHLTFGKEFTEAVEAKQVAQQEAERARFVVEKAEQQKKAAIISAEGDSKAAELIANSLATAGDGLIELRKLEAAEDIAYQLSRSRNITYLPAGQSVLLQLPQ
UniProt P42356, whole entry, looked up: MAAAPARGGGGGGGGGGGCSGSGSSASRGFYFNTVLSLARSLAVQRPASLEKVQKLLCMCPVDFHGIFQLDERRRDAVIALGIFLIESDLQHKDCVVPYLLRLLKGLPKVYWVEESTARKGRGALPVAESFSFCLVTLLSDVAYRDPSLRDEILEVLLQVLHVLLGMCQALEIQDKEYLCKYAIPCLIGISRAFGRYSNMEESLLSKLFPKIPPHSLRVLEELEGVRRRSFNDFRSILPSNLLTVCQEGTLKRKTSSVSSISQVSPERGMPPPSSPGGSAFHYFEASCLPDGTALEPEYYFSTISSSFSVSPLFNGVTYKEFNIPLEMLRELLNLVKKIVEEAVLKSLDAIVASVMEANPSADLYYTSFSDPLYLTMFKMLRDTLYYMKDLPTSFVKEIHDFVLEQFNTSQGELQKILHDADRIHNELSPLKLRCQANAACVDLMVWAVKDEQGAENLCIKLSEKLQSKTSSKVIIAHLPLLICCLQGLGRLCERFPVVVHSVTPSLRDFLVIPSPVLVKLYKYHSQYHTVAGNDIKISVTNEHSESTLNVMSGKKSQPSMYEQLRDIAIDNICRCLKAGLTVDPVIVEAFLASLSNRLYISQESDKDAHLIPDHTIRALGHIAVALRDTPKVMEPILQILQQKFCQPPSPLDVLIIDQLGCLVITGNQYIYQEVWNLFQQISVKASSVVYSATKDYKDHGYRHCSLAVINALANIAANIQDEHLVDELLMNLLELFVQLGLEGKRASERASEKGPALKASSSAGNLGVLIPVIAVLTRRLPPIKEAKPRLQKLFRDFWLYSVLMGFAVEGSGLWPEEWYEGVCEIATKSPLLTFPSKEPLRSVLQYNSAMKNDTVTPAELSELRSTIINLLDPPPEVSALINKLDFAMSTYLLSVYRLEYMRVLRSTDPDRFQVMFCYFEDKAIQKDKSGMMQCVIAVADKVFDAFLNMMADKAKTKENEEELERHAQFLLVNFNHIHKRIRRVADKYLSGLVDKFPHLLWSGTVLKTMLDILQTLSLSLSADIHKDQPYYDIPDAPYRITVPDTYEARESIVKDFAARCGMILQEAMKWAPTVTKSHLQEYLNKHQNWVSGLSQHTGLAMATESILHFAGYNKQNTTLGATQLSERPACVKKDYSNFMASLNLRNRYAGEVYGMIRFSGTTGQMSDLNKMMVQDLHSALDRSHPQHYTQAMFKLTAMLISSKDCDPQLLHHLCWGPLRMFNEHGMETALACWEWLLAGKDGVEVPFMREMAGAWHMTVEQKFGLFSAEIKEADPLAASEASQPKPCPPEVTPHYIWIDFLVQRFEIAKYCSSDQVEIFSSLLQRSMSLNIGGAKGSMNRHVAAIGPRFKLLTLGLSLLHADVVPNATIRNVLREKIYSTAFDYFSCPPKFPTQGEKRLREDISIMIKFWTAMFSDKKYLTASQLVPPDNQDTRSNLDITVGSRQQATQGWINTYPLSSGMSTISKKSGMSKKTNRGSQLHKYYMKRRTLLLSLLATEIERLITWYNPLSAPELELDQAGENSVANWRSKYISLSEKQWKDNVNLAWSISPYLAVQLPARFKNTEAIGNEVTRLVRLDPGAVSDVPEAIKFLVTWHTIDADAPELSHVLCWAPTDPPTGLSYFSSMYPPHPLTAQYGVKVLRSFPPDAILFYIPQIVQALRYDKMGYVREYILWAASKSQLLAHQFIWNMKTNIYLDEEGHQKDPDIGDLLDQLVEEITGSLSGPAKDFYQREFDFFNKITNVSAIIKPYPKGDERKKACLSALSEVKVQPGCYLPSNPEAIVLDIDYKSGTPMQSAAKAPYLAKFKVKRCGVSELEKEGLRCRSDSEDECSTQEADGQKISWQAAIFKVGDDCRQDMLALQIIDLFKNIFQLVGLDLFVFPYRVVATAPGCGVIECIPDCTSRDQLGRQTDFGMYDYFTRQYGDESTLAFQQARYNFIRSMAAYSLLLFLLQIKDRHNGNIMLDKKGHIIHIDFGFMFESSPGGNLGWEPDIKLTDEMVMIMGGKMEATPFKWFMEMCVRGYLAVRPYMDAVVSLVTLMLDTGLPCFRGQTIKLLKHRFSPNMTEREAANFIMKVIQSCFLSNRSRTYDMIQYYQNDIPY
UniProt O43164: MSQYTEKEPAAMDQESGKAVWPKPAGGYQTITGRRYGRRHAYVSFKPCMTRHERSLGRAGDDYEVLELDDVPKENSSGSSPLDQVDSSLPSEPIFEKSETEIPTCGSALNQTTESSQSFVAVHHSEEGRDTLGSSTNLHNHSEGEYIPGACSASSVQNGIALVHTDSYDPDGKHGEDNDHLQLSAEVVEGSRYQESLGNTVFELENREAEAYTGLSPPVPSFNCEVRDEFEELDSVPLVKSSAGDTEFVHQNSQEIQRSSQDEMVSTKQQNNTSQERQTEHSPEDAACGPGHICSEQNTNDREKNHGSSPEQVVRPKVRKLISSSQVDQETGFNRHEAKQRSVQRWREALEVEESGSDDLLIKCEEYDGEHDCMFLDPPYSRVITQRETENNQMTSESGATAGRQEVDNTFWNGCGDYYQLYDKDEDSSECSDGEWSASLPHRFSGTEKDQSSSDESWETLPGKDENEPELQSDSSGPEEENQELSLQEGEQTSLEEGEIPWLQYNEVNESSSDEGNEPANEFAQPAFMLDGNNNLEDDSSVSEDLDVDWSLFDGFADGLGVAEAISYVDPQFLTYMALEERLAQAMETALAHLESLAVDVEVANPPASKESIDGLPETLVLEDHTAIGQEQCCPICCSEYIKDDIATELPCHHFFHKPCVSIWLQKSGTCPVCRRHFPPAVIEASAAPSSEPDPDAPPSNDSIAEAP
UniProt O00459, whole entry, looked up: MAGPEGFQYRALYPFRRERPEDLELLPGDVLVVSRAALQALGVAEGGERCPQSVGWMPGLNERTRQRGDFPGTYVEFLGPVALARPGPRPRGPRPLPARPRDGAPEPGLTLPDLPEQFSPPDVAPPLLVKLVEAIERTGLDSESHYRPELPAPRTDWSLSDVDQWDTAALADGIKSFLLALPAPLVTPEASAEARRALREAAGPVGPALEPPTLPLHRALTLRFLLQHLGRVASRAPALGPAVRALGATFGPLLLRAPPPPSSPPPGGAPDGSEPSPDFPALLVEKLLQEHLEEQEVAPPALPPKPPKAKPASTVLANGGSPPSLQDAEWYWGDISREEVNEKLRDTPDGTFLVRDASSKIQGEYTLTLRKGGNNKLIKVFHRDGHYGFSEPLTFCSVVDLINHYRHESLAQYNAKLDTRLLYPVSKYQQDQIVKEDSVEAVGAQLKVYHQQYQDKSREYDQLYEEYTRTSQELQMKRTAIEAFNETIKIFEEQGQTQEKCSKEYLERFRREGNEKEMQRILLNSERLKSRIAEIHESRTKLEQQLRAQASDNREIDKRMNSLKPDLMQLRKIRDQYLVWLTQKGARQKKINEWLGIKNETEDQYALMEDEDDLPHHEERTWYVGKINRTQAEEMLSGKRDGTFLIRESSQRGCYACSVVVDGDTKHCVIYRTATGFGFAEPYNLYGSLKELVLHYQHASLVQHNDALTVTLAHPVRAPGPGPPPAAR
UniProt Q8N4L2: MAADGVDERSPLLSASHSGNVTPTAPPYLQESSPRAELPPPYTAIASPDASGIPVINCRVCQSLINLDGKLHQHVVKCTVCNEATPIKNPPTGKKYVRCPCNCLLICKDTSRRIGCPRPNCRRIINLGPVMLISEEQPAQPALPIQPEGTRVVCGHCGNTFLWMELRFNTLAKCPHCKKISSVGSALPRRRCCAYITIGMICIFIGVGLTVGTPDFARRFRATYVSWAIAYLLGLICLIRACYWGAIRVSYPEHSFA
UniProt O95336: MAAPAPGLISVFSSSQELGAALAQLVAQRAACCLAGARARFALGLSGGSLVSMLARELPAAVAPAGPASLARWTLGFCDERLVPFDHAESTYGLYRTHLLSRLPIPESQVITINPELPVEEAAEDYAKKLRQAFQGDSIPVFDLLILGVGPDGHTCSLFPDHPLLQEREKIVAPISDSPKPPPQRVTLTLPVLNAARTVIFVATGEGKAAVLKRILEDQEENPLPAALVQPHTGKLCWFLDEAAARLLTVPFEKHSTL
UniProt Q9Y2I7: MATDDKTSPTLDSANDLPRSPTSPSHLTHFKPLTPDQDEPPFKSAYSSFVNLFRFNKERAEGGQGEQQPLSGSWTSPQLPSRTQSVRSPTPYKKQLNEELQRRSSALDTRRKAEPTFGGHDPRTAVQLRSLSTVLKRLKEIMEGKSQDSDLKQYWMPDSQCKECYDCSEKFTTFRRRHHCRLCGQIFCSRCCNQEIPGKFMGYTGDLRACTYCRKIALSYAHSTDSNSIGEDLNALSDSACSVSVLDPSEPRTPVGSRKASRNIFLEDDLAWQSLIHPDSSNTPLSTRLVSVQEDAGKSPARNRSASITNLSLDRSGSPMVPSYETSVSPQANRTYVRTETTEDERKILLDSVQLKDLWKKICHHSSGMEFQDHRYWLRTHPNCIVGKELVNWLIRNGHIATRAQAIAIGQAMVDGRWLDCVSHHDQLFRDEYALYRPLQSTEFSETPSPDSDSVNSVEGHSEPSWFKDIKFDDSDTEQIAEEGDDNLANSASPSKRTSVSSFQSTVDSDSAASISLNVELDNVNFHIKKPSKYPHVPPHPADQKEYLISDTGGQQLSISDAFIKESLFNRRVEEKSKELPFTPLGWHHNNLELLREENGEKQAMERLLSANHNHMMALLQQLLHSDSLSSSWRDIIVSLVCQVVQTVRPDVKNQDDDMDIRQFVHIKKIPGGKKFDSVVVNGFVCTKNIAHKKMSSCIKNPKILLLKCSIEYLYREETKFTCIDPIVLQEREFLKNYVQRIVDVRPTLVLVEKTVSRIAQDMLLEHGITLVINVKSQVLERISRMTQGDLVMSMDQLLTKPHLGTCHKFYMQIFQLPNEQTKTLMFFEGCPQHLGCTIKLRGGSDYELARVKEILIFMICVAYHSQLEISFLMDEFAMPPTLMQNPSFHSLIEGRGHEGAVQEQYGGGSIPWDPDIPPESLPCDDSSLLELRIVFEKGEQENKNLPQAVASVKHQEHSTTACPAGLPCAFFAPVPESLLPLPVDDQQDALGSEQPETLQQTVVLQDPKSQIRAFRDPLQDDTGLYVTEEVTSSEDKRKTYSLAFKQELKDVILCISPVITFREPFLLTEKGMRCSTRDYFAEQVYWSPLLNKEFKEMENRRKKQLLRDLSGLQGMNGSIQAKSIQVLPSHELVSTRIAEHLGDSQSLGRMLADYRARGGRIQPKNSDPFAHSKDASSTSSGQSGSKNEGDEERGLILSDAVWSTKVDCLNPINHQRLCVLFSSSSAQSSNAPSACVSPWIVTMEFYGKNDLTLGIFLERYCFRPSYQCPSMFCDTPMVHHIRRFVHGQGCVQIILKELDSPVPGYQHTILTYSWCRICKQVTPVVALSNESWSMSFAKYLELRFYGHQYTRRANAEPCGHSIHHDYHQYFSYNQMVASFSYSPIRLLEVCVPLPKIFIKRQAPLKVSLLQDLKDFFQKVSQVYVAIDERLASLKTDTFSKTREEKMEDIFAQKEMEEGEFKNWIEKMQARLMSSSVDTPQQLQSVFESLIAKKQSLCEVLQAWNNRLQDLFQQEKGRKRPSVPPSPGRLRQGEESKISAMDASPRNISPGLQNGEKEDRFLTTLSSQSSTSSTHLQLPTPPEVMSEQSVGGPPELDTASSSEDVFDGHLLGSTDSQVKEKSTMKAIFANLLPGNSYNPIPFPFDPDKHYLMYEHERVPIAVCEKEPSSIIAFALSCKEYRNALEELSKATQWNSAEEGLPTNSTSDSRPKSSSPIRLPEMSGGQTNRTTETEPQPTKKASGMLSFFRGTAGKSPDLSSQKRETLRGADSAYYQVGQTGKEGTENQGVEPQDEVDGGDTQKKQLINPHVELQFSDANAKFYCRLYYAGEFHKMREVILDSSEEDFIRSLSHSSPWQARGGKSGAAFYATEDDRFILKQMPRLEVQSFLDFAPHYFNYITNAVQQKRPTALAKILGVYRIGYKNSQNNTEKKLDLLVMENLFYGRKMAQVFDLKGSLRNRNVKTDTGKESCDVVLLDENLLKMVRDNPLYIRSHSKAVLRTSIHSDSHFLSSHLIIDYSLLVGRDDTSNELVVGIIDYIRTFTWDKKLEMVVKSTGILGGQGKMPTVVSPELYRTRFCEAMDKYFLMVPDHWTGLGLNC

[2] = compound: CC1=C(SC2=C1C(=N[C@H](C3=NN=C(N32)C)CC(=O)N)C4=CC=C(C=C4)Cl)C
In short: as §1

[3] = compound: CC1=C2C(=CC=C1)N=C(N(C2=O)C3=CC=CC=C3C)CN4C=NC5=C(N=CN=C54)N
In short: as §1

[4] = compound: Cc1sc2c(c1C)C(c1ccc(Cl)cc1)=N[C@@H](CC(=O)OC(C)(C)C)c1nnc(C)n1-2
In short: as §1

[5] = compound: c1ccc([C@@H]2C[C@H]2NC2CCNCC2)cc1
In short: as §1

| Target | log2 fold change [1] | log2 fold change [2] | log2 fold change [3] | log2 fold change [4] | log2 fold change [5] |
| --- | --- | --- | --- | --- | --- |
| PLEKHF1 (UniProt Q96S99) | inactive: -0.019 | inactive: 0.034 | inactive: 0.029 | inactive: 0.01 | inactive: 0.014 |
| PHC1 (UniProt P78364) | inactive: 0.025 | inactive: 0.001 | inactive: 0.041 | inactive: -0.049 |  |
| PITPNB isoform 3 (UniProt P48739) | inactive: -0.006 | inactive: 0.02 | inactive: 0.012 | inactive: 0.04 | inactive: 0.008 |
| PHAX (UniProt Q9H814) | inactive: 0.026 | inactive: 0.014 | inactive: -0.014 | inactive: -0.027 | inactive: 0 |
| PLD3 (UniProt Q8IV08) | inactive: 0.004 | inactive: 0.007 | inactive: 0.012 | inactive: -0.011 | inactive: -0.024 |
| PLEKHA5 isoform 6 (UniProt Q9HAU0) | inactive: 0 | inactive: -0.112 | inactive: -0.06 | inactive: -0.013 | inactive: 0.045 |
| PHF5A (UniProt Q7RTV0) | inactive: 0.014 | inactive: -0.015 | inactive: -0.045 | inactive: 0.046 | inactive: -0.078 |
| PHB (UniProt P35232) | inactive: -0.126 | inactive: -0.045 | inactive: 0.002 | inactive: 0.013 | inactive: -0.006 |
| PICALM (UniProt Q13492) | inactive: -0.014 | inactive: 0.027 | inactive: 0.016 | inactive: 0.005 | inactive: 0.007 |
| PIK3CB (UniProt P42338) | inactive: -0.066 | inactive: -0.054 | active: 0.518 | inactive: -0.049 | inactive: -0.033 |
| PLCD1 isoform 2 (UniProt P51178) | inactive: 0.021 | inactive: -0.031 | inactive: -0.001 | inactive: 0.008 | inactive: 0.016 |
| PI4K2A (UniProt Q9BTU6) | inactive: 0.028 | inactive: 0.056 | inactive: -0.007 | inactive: -0.002 | inactive: 0.001 |
| PITX1 (UniProt P78337) | inactive: -0.185 | inactive: -0.127 | inactive: 0.027 | inactive: 0.149 |  |
| PKP3 isoform 2 (UniProt Q9Y446) | inactive: -0.049 | inactive: 0.014 | inactive: 0.002 | inactive: 0.062 | inactive: -0.004 |
| PITPNM1 (UniProt O00562) | inactive: -0.294 | inactive: -0.176 |  |  |  |
| PKM (UniProt H3BTN5) | inactive: 0.155 | inactive: 0.241 | inactive: 0.089 |  |  |
| PIM1 isoform 2 (UniProt P11309) | inactive: -0.115 | inactive: -0.046 | inactive: -0.127 | inactive: -0.025 | inactive: -0.191 |
| PIP5K1B isoform 2 (UniProt O14986) | inactive: -0.182 | inactive: -0.221 |  |  |  |
| PLCL1 (UniProt Q15111) | inactive: -0.011 | inactive: -0.004 | inactive: 0.029 | inactive: -0.062 | inactive: 0.065 |
| PGM3 (UniProt D6RCQ8) | inactive: -0.731 | inactive: 0.436 |  |  |  |
| PGGT1B (UniProt P53609) | inactive: -0.055 | inactive: 0.021 | inactive: -0.013 | inactive: -0.004 | inactive: 0.064 |
| PHOX2B (UniProt Q99453) | inactive: 0.013 | inactive: 0.033 | inactive: -0.052 | inactive: -0.388 |  |
| PI4KA (UniProt P42356) | inactive: -0.08 | inactive: -0.012 | inactive: 0.057 | inactive: -0.019 | inactive: -0.018 |
| PJA2 (UniProt O43164) | inactive: 0.012 | inactive: 0.046 | inactive: -0.011 | inactive: 0.004 | inactive: -0.097 |
| PHF10 (UniProt Q8WUB8) | inactive: 0.026 | inactive: 0.019 | inactive: -0.025 | inactive: 0.008 | inactive: -0.028 |
| PIK3R1 (UniProt P27986) | inactive: -0.014 | inactive: -0.065 | inactive: 0.313 | inactive: -0.024 | inactive: -0.007 |
| PKN2 (UniProt Q16513) | inactive: -0.02 | inactive: 0.02 | inactive: 0.031 | inactive: 0.034 | inactive: 0.063 |
| PLBD2 (UniProt Q8NHP8) | inactive: 0.02 | inactive: -0.018 | inactive: -0.016 | inactive: 0.002 | inactive: -0.017 |

| Target | log2 fold change [1] | log2 fold change [2] | log2 fold change [3] | log2 fold change [4] | log2 fold change [5] |
| --- | --- | --- | --- | --- | --- |
| PHYKPL (UniProt Q8IUZ5) | inactive: -0.005 | inactive: 0.029 | inactive: -0.093 | inactive: 0.107 | inactive: 0.057 |
| PIK3R2 (UniProt O00459) | inactive: 0.002 | inactive: -0.058 | inactive: 0.272 | inactive: 0.024 | inactive: -0.007 |
| PKM (UniProt P14618) | inactive: 0.008 | inactive: 0.014 | inactive: -0.001 | inactive: -0.009 | inactive: -0.037 |
| PIGM (UniProt Q9H3S5) | inactive: 0.024 | inactive: -0.149 | inactive: -0.068 |  |  |
| PHF14 (UniProt O94880) | inactive: 0.048 | inactive: 0.025 | inactive: -0.038 | inactive: 0.019 |  |
| PLA2G12A (UniProt Q9BZM1) | inactive: 0.195 | inactive: 0.078 | inactive: 0.059 | inactive: 0.028 | inactive: -0.084 |
| PIGK (UniProt Q92643) | inactive: -0.019 | inactive: -0.023 | inactive: 0.014 | inactive: -0.041 | inactive: -0.037 |
| PIP4P2 (UniProt Q8N4L2) | inactive: 0.03 | inactive: -0.068 | inactive: -0.012 | inactive: 0.012 | inactive: -0.106 |
| PHLDB1 (UniProt Q86UU1) | inactive: -0.006 | inactive: 0.007 | inactive: 0.054 | inactive: -0.027 | inactive: 0.036 |
| PIGG (UniProt Q5H8A4) | inactive: 0.148 | inactive: 0.021 | inactive: 0.051 | inactive: 0.01 | inactive: 0.075 |
| PIGO (UniProt Q8TEQ8) | inactive: -0.098 | inactive: -0.058 | inactive: -0.014 | inactive: -0.023 | inactive: 0.039 |
| PLA2G15 (UniProt Q8NCC3) | inactive: -0.005 | inactive: 0.009 | inactive: 0.021 | inactive: -0.002 | inactive: -0.022 |
| PGLS (UniProt O95336) | inactive: -0.063 | inactive: -0.06 | inactive: 0.094 | inactive: -0.04 | inactive: 0.095 |
| PHKA2 (UniProt P46019) | inactive: -0.111 | inactive: 0.028 | inactive: 0.052 | inactive: 0.021 | inactive: 0.038 |
| PKLR (UniProt P30613) | inactive: 0.01 | inactive: 0.03 | inactive: -0.012 | inactive: -0.022 | inactive: -0.015 |
| PIKFYVE (UniProt Q9Y2I7) | inactive: -0.005 | inactive: 0.007 | inactive: 0.016 | inactive: 0.054 | inactive: -0.03 |
| PGPEP1 (UniProt Q9NXJ5) | inactive: 0.027 | inactive: -0.071 | inactive: -0.013 | inactive: -0.025 | inactive: 0.012 |
| PIH1D1 (UniProt Q9NWS0) | inactive: 0.009 | inactive: -0.023 | inactive: -0.012 | inactive: 0.008 | inactive: 0.01 |
| PHKG2 (UniProt P15735) | inactive: 0.039 | inactive: -0.038 | inactive: -0.037 | inactive: -0.002 | inactive: -0.022 |
| PGK1 (UniProt P00558) | inactive: -0.027 | inactive: -0.001 | inactive: -0.01 | inactive: 0.024 | inactive: 0.037 |
| PLEC (UniProt Q15149) | inactive: -0.01 | inactive: 0.017 | inactive: 0.009 | inactive: -0.031 | inactive: 0.023 |
| PITRM1 isoform 2 (UniProt Q5JRX3) | inactive: 0.158 | inactive: -0.193 | inactive: 0.005 | inactive: 0.04 | inactive: 0.01 |
| PHF6 (UniProt Q8IWS0) | inactive: -0.018 | inactive: -0.034 | inactive: -0.013 | inactive: 0.033 | inactive: 0.048 |
| PHB2 (UniProt Q99623) | inactive: -0.007 | inactive: 0.021 | inactive: -0.007 | inactive: -0.005 | inactive: -0.021 |
| PGRMC2 isoform 2 (UniProt O15173) | inactive: 0.038 | inactive: 0.037 | inactive: 0.007 | inactive: -0.024 | inactive: -0.008 |
| PGM3 isoform 4 (UniProt O95394) | inactive: -0.001 | inactive: 0.009 | inactive: -0.016 | inactive: 0.026 | inactive: 0.054 |
| PIP4K2C (UniProt Q8TBX8) | inactive: -0.12 | inactive: -0.062 | inactive: -0.113 | inactive: -0.023 | inactive: -0.011 |

A different layout for some results above.
Target	log2 fold change [1]	log2 fold change [2]	log2 fold change [3]	log2 fold change [4]	log2 fold change [5]
PKM (UniProt P14618)	inactive: 0.008	inactive: 0.014	inactive: -0.001	inactive: -0.009	inactive: -0.037
PIGM (UniProt Q9H3S5)	inactive: 0.024	inactive: -0.149	inactive: -0.068		
PHF14 (UniProt O94880)	inactive: 0.048	inactive: 0.025	inactive: -0.038	inactive: 0.019	

From the supplement of paper PMC10849652
